We go through 2 molecules from paper PMC9098846, “Molecular insights into biogenesis of glycosylphosphatidylinositol anchor proteins” (Nature Communications, 2022).

The chains behind the UniProt entries cited, without tags or fusion partners. Where a name states a change or a piece, a line headed by the entry shows the natural chain unless it says otherwise.
UniProt O43292: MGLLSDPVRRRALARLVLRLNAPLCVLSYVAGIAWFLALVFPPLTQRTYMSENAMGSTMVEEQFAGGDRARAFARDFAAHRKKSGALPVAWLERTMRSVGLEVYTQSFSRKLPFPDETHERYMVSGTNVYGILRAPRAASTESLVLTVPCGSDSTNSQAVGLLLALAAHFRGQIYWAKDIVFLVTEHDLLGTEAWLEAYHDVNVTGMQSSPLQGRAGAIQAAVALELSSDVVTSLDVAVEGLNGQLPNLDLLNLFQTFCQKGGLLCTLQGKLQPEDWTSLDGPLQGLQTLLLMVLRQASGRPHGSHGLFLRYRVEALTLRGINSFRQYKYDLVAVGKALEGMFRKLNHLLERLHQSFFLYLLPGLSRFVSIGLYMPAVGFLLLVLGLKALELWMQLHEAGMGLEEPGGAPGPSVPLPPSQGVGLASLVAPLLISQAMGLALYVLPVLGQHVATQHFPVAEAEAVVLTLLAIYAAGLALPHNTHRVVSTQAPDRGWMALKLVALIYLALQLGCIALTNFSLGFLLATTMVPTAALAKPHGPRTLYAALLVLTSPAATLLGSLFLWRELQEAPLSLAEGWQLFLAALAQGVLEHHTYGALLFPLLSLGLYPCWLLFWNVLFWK
UniProt Q96S52: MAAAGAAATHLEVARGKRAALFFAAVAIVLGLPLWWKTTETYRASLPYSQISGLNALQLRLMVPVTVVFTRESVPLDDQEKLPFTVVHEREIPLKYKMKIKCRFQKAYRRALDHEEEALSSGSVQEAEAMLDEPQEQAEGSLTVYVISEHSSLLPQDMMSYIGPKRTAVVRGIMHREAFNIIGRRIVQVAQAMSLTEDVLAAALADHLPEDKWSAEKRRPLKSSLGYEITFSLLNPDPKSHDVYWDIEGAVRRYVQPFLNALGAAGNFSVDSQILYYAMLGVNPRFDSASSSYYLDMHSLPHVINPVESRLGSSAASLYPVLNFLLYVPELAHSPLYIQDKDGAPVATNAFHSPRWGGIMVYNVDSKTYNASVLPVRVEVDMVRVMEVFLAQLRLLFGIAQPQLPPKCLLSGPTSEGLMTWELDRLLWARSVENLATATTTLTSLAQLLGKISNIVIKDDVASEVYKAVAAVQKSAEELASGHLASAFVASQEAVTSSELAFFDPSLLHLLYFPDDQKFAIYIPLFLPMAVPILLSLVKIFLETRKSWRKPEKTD
UniProt Q9H490: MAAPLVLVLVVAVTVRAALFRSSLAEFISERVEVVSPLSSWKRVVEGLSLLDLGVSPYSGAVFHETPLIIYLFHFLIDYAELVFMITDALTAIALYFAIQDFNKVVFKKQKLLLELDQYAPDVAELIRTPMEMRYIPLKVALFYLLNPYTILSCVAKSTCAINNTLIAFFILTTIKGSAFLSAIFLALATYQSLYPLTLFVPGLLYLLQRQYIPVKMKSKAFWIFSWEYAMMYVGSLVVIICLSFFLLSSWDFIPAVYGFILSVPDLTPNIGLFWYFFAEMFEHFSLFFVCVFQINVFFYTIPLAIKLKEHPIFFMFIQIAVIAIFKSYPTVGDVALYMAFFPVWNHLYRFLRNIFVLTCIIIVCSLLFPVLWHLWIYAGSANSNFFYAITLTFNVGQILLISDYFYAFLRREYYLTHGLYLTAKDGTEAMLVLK

These are yes or no findings as the source states them, for the method shown. For some assays here: Binding seen in cells or lysates may run through a third protein.

Experiment [1] addresses human GPI transamidase complex (GPI-T), equimolar heteropentamer of GPAA1, PIGK, PIGS, PIGT and PIGU (human) (UniProt O43292+Q92643+Q96S52+Q969N2+Q9H490). Kind of experiment: cryo-EM structure; single-particle cryo-EM of the purified GPI-T complex in 0.1% digitonin, 150 mM NaCl, 20 mM Tris HCl pH 8.0; 2.53 Å; five subunits with 1:1 stoichiometry; both purified.
For experiment [2], the target named is T1, PIGT, subunit of the human GPI transamidase (GPI-T) (human) (UniProt Q969N2).
T1 sequence (chain, disulfide bond from C182 to PIGK C92): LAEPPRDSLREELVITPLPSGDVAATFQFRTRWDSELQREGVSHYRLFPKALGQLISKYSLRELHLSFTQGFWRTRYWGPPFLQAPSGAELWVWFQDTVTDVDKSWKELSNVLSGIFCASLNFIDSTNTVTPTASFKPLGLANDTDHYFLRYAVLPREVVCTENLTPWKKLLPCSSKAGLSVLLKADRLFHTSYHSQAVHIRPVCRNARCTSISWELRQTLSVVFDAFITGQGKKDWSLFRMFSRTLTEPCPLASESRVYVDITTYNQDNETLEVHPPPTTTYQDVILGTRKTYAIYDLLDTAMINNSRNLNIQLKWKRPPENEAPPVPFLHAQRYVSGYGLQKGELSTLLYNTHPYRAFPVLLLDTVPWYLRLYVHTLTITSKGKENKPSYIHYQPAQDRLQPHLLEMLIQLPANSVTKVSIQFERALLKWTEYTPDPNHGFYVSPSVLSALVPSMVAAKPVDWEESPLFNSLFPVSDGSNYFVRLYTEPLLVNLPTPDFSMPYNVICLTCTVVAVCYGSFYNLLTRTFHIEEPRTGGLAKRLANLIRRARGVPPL
The experiment is described as follows: condition: only with the reducing agent β-mercaptoethanol on SDS-PAGE; cross-linking; as a2, but SDS-PAGE in the presence of the reducing agent β-mercaptoethanol.

With “human GPI transamidase complex (GPI-T), equimolar heteropentamer of GPAA1, PIGK, PIGS, PIGT and PIGU (from UniProt O43292-1 2-621; Q92643-1 28-395; Q96S52-1 2-555; Q969N2-1 22-578; Q9H490-1 2-435)”, the binding entry in experiment [1] is on record as “no binding”.

B1: PIGK, subunit of the human GPI transamidase (GPI-T) (enzyme)
chain: SHIEDQAEQFFRSGHTNNWAVLVCTSRFWFNYRHVANTLSVYRSVKRLGIPDSHIVLMLADDMACNPRNPKPATVFSHKNMELNVYGDDVEVDYRSYEVTVENFLRVLTGRIPPSTPRSKRLLSDDRSNILIYMTGHGGNGFLKFQDSEEITNIELADAFEQMWQKRRYNELLFIIDTCQGASMYERFYSPNIMALASSQVGEDSLSHQPDPAIGVHLMDRYTFYVLEFLEEINPASQTNMNDLFQVCPKSLCVSTPGHRTDLFQRDPKNVLITDFFGSVRKVEITTETIKLQQDSEIMESSYKEDQMDEKLMEPLKYAEQLPVAQIIHQKPKLKDWHPPGGFILGLWALIIMVFFKTYGIKHMKFIF
modifications: disulfide bond from C92 to PIGT C182
notes: PIGK, human, Genbank ID NP_005473.1; The HA tag follows the TGP tag; also called Gpi8p (yeast name); source: Expi293 cells co-transfected with five plasmids carrying all subunits; purified as the GPI-T complex (Strep-Tactin, Ni-NTA, gel filtration) in digitonin
For the molecule B1, the binding result in experiment [2] is “no binding”.
